Assay results from US12453349B2, “Compositions comprising pyridine carboxylate herbicides and 4-hydroxyphenyl-pyruvate dioxygenase (HPPD) inhibitor herbicides” (Corteva Agriscience LLC, priority 2018, dated 2025).
Where “and” joins values, the source holds several entries; their conditions need not be identical. Equal values may be shown once. At least one read-out could not be matched to a standard name with certainty.

Tested on: KCHSC, Kochia scoparia (kochia)
Assay: Greenhouse postemergence herbicidal effect, visual injury 20-22 d after application
Type: in vivo
Description: Seeds of the desired test plant species were planted in a 90:10% v/v (volume/volume) mixture of PRO-MIX® BX (Premier Tech Horticulture, Quakertown, PA, USA) and PROFILE® GREENS GRADE™ (Profile Products LLC, Buffalo Grove, IL, USA) planting mixture, which typically has a pH of 5.2 to 6.2 and an organic matter content of at least 50 percent, in plastic pots with a surface area of 103.2 square centimeters (cm^2). In some aspects, to help ensure good germination and healthy plants, a fungicide treatment and/or other chemical or physical treatment was applied. The plants were grown for 7-36 days (d) in a greenhouse with an approximate 14-hour (h) photoperiod which was maintained at about 23° C. during the day and 22° C. during the night. Nutrients and water were added on a regular basis and supplemental lighting was provided with overhead metal halide 1000-Watt lamps as necessary. The plants were employed for testing when they reached the second or third true leaf stage. […]
The treated plants and control plants were placed in a greenhouse as described above and watered by sub-irrigation to prevent wash-off of the test compounds. After 20-22 d, the condition of the test plants as compared with that of the control plants was determined visually and scored on a scale of 0 to 100 percent where 0 corresponds to no injury and 100 corresponds to complete kill.

Q: For N#CCOC(=O)c1nc(-c2ccc3cc[nH]c3c2F)c(F)c(N)c1Cl [Compound A, cyanomethyl 4-amino-3-chloro-5-fluoro-6-(7-fluoro-1H-indol-6-yl)pyridine-2-carboxylate], which “% visual injury Obs” value (Compound A 7.5 g ae/ha) is on record?
A: 50% and 70% and 65%

Q: And the “% visual injury Obs” value (Compound A 10 g ae/ha)?
A: 65% and 58%
